Reference: PubChem BioAssay AID1224826 (NIAID, 2016)

Test: 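Genes that change LPS-induced Tnf promoter activity in mouse macrophages when knocked down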 (primary screen)
System: RAW264.7 G9 macrophages from mouse bearing reporters for p65 (GFP) and the Tnf promoter (mCherry)
Reagents: siRNA pool against mouse genes, 100 nM
Time to read-out: 16 h of LPS stimulation, after 2 days of siRNA transfection
Treatment: bacterial lipopolysaccharide (Salmonella minnesota R595), 10 ng/ml
Detection: 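Imaged Tnf reporter mCherry in nuclei, minus background, normalised per plate to the median and expressed as robust z-scores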
Direction: Tnf reporter robust z-score: higher = stronger Tnf promoter reporter signal after LPS
Rule for the call: 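Called active when robust z-score is at most -1.3, matching the median of the Tlr4 knock-down control, or over 3; control wells and wells with under 50 cells never active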
Calls: active = Tnf reporter clearly lowered or raised; inactive = no clear change in Tnf reporter
Here is one part, drawn at random, of about 17,000 reagents tested. About 1,110 of them (6.6%) count as active. 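Active means lowered or raised reporter signal; replicate intensities are raw and not normalised per plate.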 Not all columns of the deposit are shown.

For Tcstv3, the values are fewer than 50 cells in well fewer than 50 cells per well; well left out of calls; inactive.
Against Kcns3, the values are Tnf reporter robust z-score 0.33; fewer than 50 cells in well enough cells in well; inactive.
Or8k30 showed Tnf reporter robust z-score -1.69; fewer than 50 cells in well enough cells in well; active.
Or8j3 scored Tnf reporter robust z-score 2.29; fewer than 50 cells in well enough cells in well; inactive.
Against Ccr6 the deposit lists Tnf reporter robust z-score -0.22; fewer than 50 cells in well enough cells in well; inactive.
After knock-down of Cma2 the results were Tnf reporter robust z-score -0.42; fewer than 50 cells in well enough cells in well; inactive.
Silencing of Clcc1 came out at: Tnf reporter robust z-score 0.34; fewer than 50 cells in well enough cells in well; inactive.

Entries listed so far whose gene name begins with C or c:
Ccr6: Tnf reporter robust z-score = -0.22; fewer than 50 cells in well = enough cells in well; call = inactive
Cma2: Tnf reporter robust z-score = -0.42; fewer than 50 cells in well = enough cells in well; call = inactive
Clcc1: Tnf reporter robust z-score = 0.34; fewer than 50 cells in well = enough cells in well; call = inactive

The listing continues:
Sult1c1 scored Tnf reporter robust z-score 1.59; fewer than 50 cells in well enough cells in well; inactive.
For Tia1, the values are Tnf reporter robust z-score 0.56; fewer than 50 cells in well enough cells in well; inactive.
After knock-down of Psrc1, the screen gave Tnf reporter robust z-score -0.57; fewer than 50 cells in well enough cells in well; inactive.
Sowaha gave Tnf reporter robust z-score -0.24; fewer than 50 cells in well enough cells in well; inactive.
After knock-down of Fau, the screen gave Tnf reporter robust z-score -1.55; fewer than 50 cells in well enough cells in well; active.
Zfp846 scored fewer than 50 cells in well fewer than 50 cells per well; well left out of calls; inactive.
With knock-down of Rpp14 the results were Tnf reporter robust z-score 0.18; fewer than 50 cells in well enough cells in well; inactive.
